Data on two molecules can be found in doi:10.1101/522284.

Common to all, as to test: affinity purification with mass spectrometry
For assay [1], the target named is Tau-RD* (FLAG-tagged human Tau-RD, Q244-E372, ΔK280) (human) (UniProt P10636).
Assay [2] has the same target. The source holds these as a separate data set.
For assay [3] the target is unchanged. The source holds these as a separate data set.

Where two headings read alike, the source gives them in different places. No constants are given. Whether binding was seen depends on the method and setting. Binding seen in cells or lysates may run through a third protein. Here binding means that the protein was enriched with, or labelled near, the bait; the list need not be complete. For part of these data: A no says only that the protein was not detected with the bait.

For the molecule CTBP1 (from UniProt Q9Z2F5 1-430), the results for the binding entry in assay [1], in assay [2] and in assay [3] were “binds”, “binds” and “no binding (only Tau-RD* fibrils)”, respectively.

B1: FBXO3 (protein, UniProt D4ABP9 1-480)
chain: MAAVEAETGLLTLESLPTDPLLLILSFVDYRDLINCCYVSRRLSQLSTHDPLWRRHCKKYWLITEEEKARKNQCWKSLFIATYSDVGRYINHYAAIKKAWDDLKKYLEPRCPRMVLSLKEGAREEDLDAVEAQIGCKLPDDYRCSYRIHNGQKLVVPGLLGSMALSNHYRSEDLLDVDTAAGGFQQRQGLKYCLPLTFCIHTGLSQYIAVEAAEGRNKNEVFYQCPDQMARNPAAIDMFIIGATFTDWFTSYVNNVVSGGFPIIRDQIFRYIHDPECVATTGDITVSVSTSFLPELSSVHPPHYFFTYRIRIEMSRDALPEKACQLDSRYWRITNAKGDVEEVQGPGVVGEFPIISPGRIYEYTSCTTFSTTSGYMEGYYTFHFLYFKDKVFNVAIPRFHMACPTFRVSIARLEMGPDEYEEMEEEAEEEEEEENDDSADMDESDESDEDENESDEGEGEERRRRVFDVPIRRRRCSRLF
On to B1, for which the binding result in assay [1] is given as “binds”; in assay [2], “binds”; in assay [3], “no binding (only Tau-RD* fibrils)”.
